For at least one compound, name, drawing or mass did not settle the structure.
What was measured:
[1] = Fluorescence lifetime (TemPro fluorescence lifetime photometer); format: physicochemical; conditions: chloroform solution, 3.2×10^−2 mM; excitation 740 nm, fluorescence 816 nm
Procedure: The fluorescence lifetimes of the fluorescence probes of the present invention were measured. The TemPro fluorescence lifetime photometer (manufactured by Horiba, Ltd.) was used for measurement. Table 3 indicates the values for a chloroform solution containing each near-infrared fluorescent dye at a concentration of 3.2×10^−2 mM and an aqueous solution of ICG (control), and Table 4 indicates values obtained from each of the near-infrared fluorescent dyes incorporated in the liposomes at a concentration of 3.2×10^−2 mM. A 740 nm semiconductor laser was used for the excitation light, and the lifetime spectra obtained at a fluorescence wavelength of 816 nm was analyzed for two components.

[2] = Maximum absorbance wavelength and molar extinction coefficient in ethanol; format: physicochemical

## CCCCCCCCCCCCCCCCCCN1/C(=C/C=C/C=C/C=C/C2=[N+](CCCCS(=O)(=O)[O-])c3ccc4ccccc4c3C2(C)C)C(C)(C)c2c1ccc1ccccc21 [ICG-8, 4-(2-((1E,3E,5E,7E)-7-(1,1-dimethyl-3-octadecyl-1H-benzo[e]indol-2(3H)-ylidene)hepta-1,3,5-trienyl)-1,1-dimethyl-1H-benzo[e]indolium-3-yl)butane-1-sulfonic acid]
[1]
  Fluorescence lifetime, first component (%): 68%
  Fluorescence lifetime, first component (ns): 1.26 ns
  Fluorescence lifetime, second component (%): 32%
  Fluorescence lifetime, second component (ns): 0.37 ns
[2]; in ethanol
  Molar Extinction Coefficient (ε): 2.30×10^5
[2]; maximum absorbance wavelength in ethanol
  λmax (EtOH): 787 nm
